Results: article PMC5979328, “Establishing a Split Luciferase Assay for Proteinkinase G (PKG) Interaction Studies” (International Journal of Molecular Sciences, 2018)
These are yes or no findings as the source states them, for the method shown. Binding seen in cells or lysates may run through a third protein. Some binding calls cover weakened binding; strength is not graded here. Where a sequence is shown, tags or fusion partners need not be part of it.

Biological target: T1, CBRC-cGKIα (proteinkinase G isoform Iα fused at its N-terminus to the C-terminal fragment of click beetle red luciferase) (UniProt P00516)
T1 sequence: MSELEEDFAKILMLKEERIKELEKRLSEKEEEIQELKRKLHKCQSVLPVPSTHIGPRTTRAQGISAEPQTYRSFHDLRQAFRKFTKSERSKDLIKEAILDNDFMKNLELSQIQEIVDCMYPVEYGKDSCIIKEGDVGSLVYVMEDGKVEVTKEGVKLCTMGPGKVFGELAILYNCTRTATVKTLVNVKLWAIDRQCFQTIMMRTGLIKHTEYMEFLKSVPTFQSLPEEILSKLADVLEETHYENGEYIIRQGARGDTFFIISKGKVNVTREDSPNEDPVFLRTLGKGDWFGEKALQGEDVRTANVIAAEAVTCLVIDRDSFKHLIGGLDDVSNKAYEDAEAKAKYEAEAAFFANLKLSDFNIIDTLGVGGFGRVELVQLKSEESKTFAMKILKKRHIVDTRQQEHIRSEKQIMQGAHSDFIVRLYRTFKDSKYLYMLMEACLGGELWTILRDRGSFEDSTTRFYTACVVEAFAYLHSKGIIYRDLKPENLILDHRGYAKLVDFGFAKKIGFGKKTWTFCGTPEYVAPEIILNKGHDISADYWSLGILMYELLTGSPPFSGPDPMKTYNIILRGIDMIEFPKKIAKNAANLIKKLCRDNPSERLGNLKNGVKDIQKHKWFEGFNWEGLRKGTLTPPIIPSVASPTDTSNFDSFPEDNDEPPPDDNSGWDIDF
Experiment: split reporter; click beetle red luciferase complementation (CBRN/CBRC) in co-transfected COS-7 cells, 15 µg DNA, vector ratios 1:25 to 1:100 (mostly 1:50); cells untreated or stimulated for 24 h with 8-Br-cGMP (0.5-2.5 mM), 8-pCPT-cGMP (100-500 µM) or 8-Br-cAMP (0.125-1 mM); Bright-Glo reagent, plate reader, RLU

B1: CBRN-RGS2 (regulator of G-protein signaling 2 fused at its N-terminus to the N-terminal fragment of click beetle red luciferase) (natural protein, UniProt P41220 1-211, looked up)
chain: MQSAMFLAVQHDCRPMDKSAGSGHKSEEKREKMKRTLLKDWKTRLSYFLQNSSTPGKPKTGKKSKQQAFIKPSPEEAQLWSEAFDELLASKYGLAAFRAFLKSEFCEENIEFWLACEDFKKTKSPQKLSSKARKIYTDFIEKEAPKEINIDFQTKTLIAQNIQEATSGCFTTAQKRVYSLMENNSYPRFLESEFYQDLCKKPQITTEPHAT
notes: regulator of G-protein signaling 2 (RGS2); cDNA from pCMV6_RGS2 (OriGene); source: COS-7 cells, calcium phosphate transfection, in living cells; not shown: CBRN (click beetle red luciferase aa 1-416; joined by a 17-residue Gly/Ser linker), N-terminal, kept
binding: binds
